The assay has as its system HEK293A TEAD-LUC reporter. As to the kind of experiment: TEAD-luciferase reporter activity (YAP activation), robust Z score vs plate; higher = stronger YAP/TEAD activation. As to conditions: 24 h. (A reporter such as luciferase makes a cellular process visible.)

Structures can show the parent of a compound that is named as a salt. The list shows a part of the results. Single values are uncertain here, since repeats match poorly.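 Human kidney-derived cells stably carry a construct in which eight TEAD-binding elements drive luciferase, measured by luminescence in a drug-repurposing library screen. A hit is any compound whose signal exceeds the plate mean by more than five robust Z scores.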

With `COCC1(C)CCCN2CCc3c(oc4ccccc34)C21` (stereo not given), the TEAD-luciferase reporter activity was inactive: 2.11 (compound concentration: 200 nM), inactive: -0.301 (compound concentration: 2 uM) and inactive: -1.08 (compound concentration: 10 uM).
Taken in the same sequence, the figures for `C[C@@H]1COCCN1c1cc(C2(S(C)(=O)=O)CC2)nc(-c2cccc3[nH]ccc23)n1` were inactive: -0.675, inactive: -1.12 and inactive: -0.932.
The matching figures for `N=C(N)NCCCCCCNC(=O)COC(=O)NCCCCNCCCN` [Tresperimus triflutate]: inactive: -2.5, inactive: 1.46 and inactive: -1.87.
Taken in the same sequence, the figures for `O=C1NC(=O)C(Cc2cnc3cc(OCc4ccccc4)ccc3c2)S1` (stereo not given) were inactive: -0.499, inactive: -0.736 and inactive: 0.0316.
In the case of `C#CC[C@@H](C(=O)N[C@H](/C=C/C(=O)OCC)C[C@@H]1CCNC1=O)n1cccc(NC(=O)c2cc(C)on2)c1=O`, the TEAD-luciferase reporter activity runs as follows: (compound concentration: 200 nM) inactive: -0.0893; (compound concentration: 2 uM) inactive: -0.877; (compound concentration: 10 uM) inactive: -0.665.
The matching figures for `Cc1nccnc1-c1ccc(CC(=O)N[C@H](C)c2ccc(OCC(F)(F)F)cn2)cc1`: inactive: -0.961, inactive: -2.34 and inactive: 3.98.
Taken in the same sequence, the figures for `CS(=O)(=O)OCOS(C)(=O)=O` were inactive: -0.697, inactive: -1.27 and inactive: -0.936.
For the molecule `CC(C)c1nc(CN(C)C(=O)N[C@H](C(=O)N[C@H](Cc2ccccc2)C[C@H](O)[C@H](Cc2ccccc2)NC(=O)OCc2cncs2)C(C)C)cs1` [ritonavir], the TEAD-luciferase reporter activity (compound concentration: 200 nM) was inactive: 1.83, the TEAD-luciferase reporter activity (compound concentration: 2 uM) was inactive: -0.201 and the TEAD-luciferase reporter activity (compound concentration: 10 uM) is inactive: -1.43.
Taken in the same sequence, the figures for `Nc1nc2cc(C(F)(F)F)ccc2n1Cc1ccc(Cl)cc1` were inactive: -1.09, inactive: -1.65 and inactive: -0.202.
Taken in the same sequence, the figures for `NS(=O)(=O)c1cc2c(cc1Cl)N=C(CSCc1ccccc1)NS2(=O)=O` were inactive: -0.418, inactive: 1.17 and inactive: -1.07.
The matching figures for `CC(=O)NC(CO)C(O)c1ccc([N+](=O)[O-])cc1` (stereo not given): inactive: -0.7, inactive: 1.69 and inactive: 0.0536.
Consider `CO[C@@]1(NC(=O)C(C(=O)[O-])c2ccc(O)cc2)C(=O)N2C(C(=O)[O-])=C(CSc3nnnn3C)CO[C@@H]21` (stereo not given in full), for which the TEAD-luciferase reporter activity (compound concentration: 200 nM) was inactive: -1.92 and the TEAD-luciferase reporter activity (compound concentration: 10 uM) is inactive: 0.704.
Take `CO[C@@]1(NC(=O)C(C(=O)[O-])c2ccc(O)cc2)C(=O)N2C(C(=O)[O-])=C(CSc3nnnn3C)CO[C@@H]21` (stereo not given in full) [Latamoxef sodium]: the TEAD-luciferase reporter activity (compound concentration: 2 uM) is inactive: -0.924.
As for `CCN(CC)CCOC(=O)c1ccc(N)cc1Cl` [Chloroprocaine hydrochloride], the TEAD-luciferase reporter activity by setting is: (compound concentration: 200 nM) inactive: -1.21; (compound concentration: 2 uM) inactive: 0.677; (compound concentration: 10 uM) inactive: 3.55.
The matching figures for `CO/N=C(\C(=O)N[C@@H]1C(=O)N2C(C(=O)O)=C(COC(C)=O)CS(=O)[C@H]12)c1csc(N)n1` (stereo not given in full): inactive: -2.31, inactive: 1.82 and active: 5.84.
Taken in the same sequence, the figures for `C=C(C)[C@@H]1CC[C@]2(C(=O)O)CC[C@]3(C)[C@H](CC[C@@H]4[C@@]5(C)CC[C@H](OC(=O)CC(C)(C)C(=O)O)C(C)(C)[C@@H]5CC[C@]43C)[C@@H]12` [Bevirimat dimeglumine] were inactive: -2.02, inactive: -0.901 and inactive: 0.216.
Take `C[n+]1cc2c3c(ccc2c2ccc4cc5c(cc4c21)OCO5)OCO3` [Sanguinarium chloride]: the TEAD-luciferase reporter activity (compound concentration: 2 uM) was active: 10.4.
Take `C[n+]1cc2c3c(ccc2c2ccc4cc5c(cc4c21)OCO5)OCO3`: the TEAD-luciferase reporter activity reads like this: (compound concentration: 200 nM) inactive: 0.617; (compound concentration: 10 uM) active: 11.2.
`CCc1c(O)c(=O)ccn1CC`: the TEAD-luciferase reporter activity was inactive: -0.604 (compound concentration: 200 nM), inactive: 0.0411 (compound concentration: 2 uM) and inactive: -1.58 (compound concentration: 10 uM).
Taken in the same sequence, the figures for `CC(NC(=O)Nc1ccccn1)c1ccc(S(N)(=O)=O)cc1` (stereo not given) were inactive: -1.21, inactive: 0.527 and inactive: 1.73.
Taken in the same sequence, the figures for `Cc1cccc(C)c1Nc1ncccc1C(=O)O` were inactive: 0.752, inactive: -0.388 and inactive: -0.322.
Taken in the same sequence, the figures for `CCc1nc(-c2cccc(C)c2)c(-c2ccnc(NC(=O)c3ccccc3)c2)s1` were inactive: -1.85, inactive: -1.48 and inactive: 0.0625.
As for `CCN(CC)CCCOc1ccc(Cl)cc1Cl`, the TEAD-luciferase reporter activity was inactive: -0.967 (compound concentration: 200 nM), inactive: -2.75 (compound concentration: 2 uM) and inactive: 0.867 (compound concentration: 10 uM).
Taken in the same sequence, the figures for `Nc1nc(=O)c2c([nH]1)NC[C@H](CCc1ccc(C(=O)N[C@@H](CCC(=O)O)C(=O)O)cc1)C2` [Lometrexol hydrate] were inactive: -1.18, inactive: -1.2 and inactive: 0.939.
Taken in the same sequence, the figures for `CN1C(=O)/C(=N\NC(N)=S)c2ccccc21` were inactive: 3.2, inactive: 2.73 and inactive: -0.153.
Taken in the same sequence, the figures for `CN1CCN(C2=Nc3ccc(F)cc3Nc3sc4ccccc4c32)CC1` were inactive: -0.345, inactive: -2.79 and inactive: -1.41.
On to `Nc1nc2c(ncn2[C@@H]2C[C@H](CO)[C@H]2CO)c(=O)[nH]1` [Lobucavir], for which the TEAD-luciferase reporter activity is, setting by setting: (compound concentration: 200 nM) inactive: -0.961; (compound concentration: 2 uM) inactive: -0.702; (compound concentration: 10 uM) inactive: -0.598.

Source of the values: the supplement of paper PMC10735217.
